Counter-ions that a name gives are not always drawn. The list shows a part of the results. Single values are uncertain, as repeats are few or missing.
Experiments:
Experiment in all cases: reduction in cell viability relative to untreated/vehicle; higher = more growth inhibition
Settings in all cases: 200 nM; 72 h
M229P = test system: M229P (parental melanoma line)
M229R = test system: M229R (matched melanoma line resistant to BRAF inhibitors)
M238P = test system: M238P (parental melanoma line)
M238R = test system: M238R (matched melanoma line resistant to BRAF inhibitors)
M249P = test system: M249P (parental melanoma line)
M249R = test system: M249R (matched melanoma line resistant to BRAF inhibitors)
UACC62P = test system: UACC62P (parental melanoma line)
UACC62R = test system: UACC62R (matched melanoma line resistant to BRAF inhibitors)

Measured: reduction in cell viability

CC(C)c1c(C(=O)Nc2ccccc2)c(-c2ccccc2)c(-c2ccc(F)cc2)n1CC[C@@H](O)C[C@@H](O)CC(=O)O [Atorvastatin calcium]
< 0%: all assays above

CC(C[N+](C)(C)C)OC(N)=O (stereo not drawn) [Bethanechol chloride]
1.63%: UACC62P
1.79%: M249R
< 0%: all other assays above

O=C(C[C@@H]1C/C=C/CCC(=O)O[C@H](c2ccccc2)CNC1=O)NCc1ccc(Cl)cc1 [Robotnikinin]
1.31%: UACC62P
< 0%: all other assays above

CC(C)c1onc(-c2c(Cl)cccc2Cl)c1COc1ccc(/C=C/c2cccc(C(=O)O)c2)c(Cl)c1
< 0%: all assays above

Cc1cccc(Nc2nc(-c3ccncc3)cs2)c1
8.58%: M249R
25.2%: M229R
3.83%: UACC62P
< 0%: all other assays above

COC(=O)Nc1nc2cc([S+]([O-])c3ccccc3)ccc2[nH]1 (stereo not drawn) [Oxfendazole]
< 0%: all assays above

Cc1ccc(C(=O)Nc2cccc(C(F)(F)F)c2)cc1-c1ccc2nc(NCCN3CCOCC3)ncc2c1
38.4%: M249R
22.4%: UACC62R
9.21%: M229R
45.9%: M238P
61.8%: UACC62P
52.6%: M249P
< 0%: M238R
33.7%: M229P

CS(=O)(=O)c1ccc(C2=C(c3ccccc3)C(=O)OC2)cc1 [Rofecoxib]
1.48%: M249R
< 0%: all other assays above

Nc1ccc(C(=O)Nc2cccc(-c3nc(N4CCOCC4)c4oc5ncccc5c4n3)c2)cn1
< 0%: all assays above

CO/N=C(\C(=O)N[C@@H]1C(=O)N2C(C(=O)O)=C(CSC(=O)c3ccco3)CS[C@H]12)c1csc(N)n1 [Ceftiofur]
< 0%: all assays above

Quoted at random: 2 entries already listed, in no set order.
CO/N=C(\C(=O)N[C@@H]1C(=O)N2C(C(=O)O)=C(CSC(=O)c3ccco3)CS[C@H]12)c1csc(N)n1 [Ceftiofur]
< 0%: all assays above

CC(C)c1c(C(=O)Nc2ccccc2)c(-c2ccccc2)c(-c2ccc(F)cc2)n1CC[C@@H](O)C[C@@H](O)CC(=O)O [Atorvastatin calcium]
< 0%: all assays above

Next part:

CC(C)Cn1cnc2c(N)nc3ccccc3c21 [Imiquimod]
5.69%: UACC62P
< 0%: all other assays above

O=C1Cc2cc(CCN3CCN(c4nsc5ccccc45)CC3)c(Cl)cc2N1 [Ziprasidone hydrochloride]
2.18%: M249R
< 0%: all other assays above

O=C(O)C1=N[C@H](C(=O)O)CC(/C=C/N2c3cc(O)c(O[C@@H]4O[C@H](CO)[C@@H](O)[C@H](O)[C@H]4O)cc3C[C@H]2C(=O)O)=C1 [Betanin]
< 0%: all assays above

C[C@H]1[C@H](OC(=O)CCC(=O)O)O[C@@H]2O[C@@]3(C)CC[C@H]4[C@H](C)CC[C@@H]1[C@@]24OO3 [Artesunate]
5.09%: M249P
28.8%: UACC62P
< 0%: all other assays above

CN1C(=O)C(Cc2c[nH]c3ccccc23)NC1=S (stereo not drawn) [Necrostatin-1]
0.65%: UACC62P
< 0%: all other assays above

Cc1c(NC(=O)OC[C@@H]2COCCN2)cn2ncnc(Nc3ccc4c(cnn4Cc4cccc(F)c4)c3)c12
8.45%: UACC62P
< 0%: all other assays above

CCCCCCCCCCCCCCCC(=O)O[C@@H]1[C@@H](O)[C@@H](O)[C@@H]([C@H](NC(=O)[C@@H]2C[C@@H](CCC)CN2C)[C@H](C)Cl)O[C@@H]1SC [Clindamycin palmitate hydrochloride]
< 0%: all assays above

Cn1cnc2c1c(=O)[nH]c(=O)n2C [Theobromine]
8.46%: M249R
< 0%: all other assays above

CC(=O)CC(c1ccccc1)c1c(O)c2ccccc2oc1=O (stereo not drawn) [Warfarin sodium]
< 0%: all assays above

C[C@@H]1CCN(C(=O)CC#N)C[C@@H]1N(C)c1ncnc2[nH]ccc12 [Tofacitinib]
4.72%: UACC62P
< 0%: all other assays above

Clc1ccc(C(c2ccc(Cl)cc2)[n+]2ccn(CC(OCc3ccc(Cl)cc3Cl)c3ccc(Cl)cc3Cl)c2)cc1 (stereo not drawn) [Calmidazolium chloride]
< 0%: all assays above

Cc1cc(Nc2nc(N[C@@H](C)c3ncc(F)cn3)ncc2Cl)[nH]n1
< 0%: all assays above

CC(CCc1ccc(O)cc1)NCCc1ccc(O)c(O)c1 (stereo not drawn) [Dobutamine]
5.26%: UACC62P
< 0%: all other assays above

O=C(Cc1ccc(-c2ccc(OCCN3CCOCC3)cc2)cn1)NCc1ccccc1
54.9%: M229R
84.3%: UACC62R
47.5%: UACC62P
51.6%: M249P
45.5%: M249R
60.6%: M238R
63.8%: M238P
34.5%: M229P

C[C@@H]1CN(CC(=O)Nc2ccc3c(c2)Cc2cccc(-c4cc(=O)cc(N5CCOCC5)o4)c2S3)C[C@H](C)O1
< 0%: all assays above

COc1ccccc1OCC(O)CN1CCN(CC(=O)Nc2c(C)cccc2C)CC1 (stereo not drawn) [Ranolazine]
< 0%: all assays above

CN[C@@H]1[C@H](O)[C@H](NC)[C@H]2O[C@@]3(O)C(=O)C[C@@H](C)O[C@H]3O[C@@H]2[C@H]1O [Spectinomycin hydrochloride]
< 0%: all assays above

CN(C)CCC(c1ccc(Cl)cc1)c1ccccn1 (stereo not drawn) [Chlorphenamine maleate]
< 0%: all assays above

C/C(O)=C(\C#N)C(=O)Nc1ccc(C(F)(F)F)cc1 [Teriflunomide]
< 0%: all assays above

COc1cccc2c(NCc3ccccc3)nc(-n3c(N)nc4ccccc43)nc12
0.56%: M249R
0.55%: UACC62P
< 0%: all other assays above

CC(C)(C)COc1ccc(-n2cc(C(=O)O)cn2)cc1C#N [Piraxostat]
< 0%: all assays above

CC(C)NCC(O)c1ccc(NS(C)(=O)=O)cc1 (stereo not drawn) [Sotalol]
< 0%: all assays above

CC(C)c1cc(-c2n[nH]c(=O)n2-c2ccc3c(ccn3C)c2)c(O)cc1O [Ganetespib (STA-9090)]
47.5%: UACC62R
54.5%: UACC62P
25.7%: M249R
8.73%: M249P
50%: M238P
62.9%: M229R
48.3%: M238R
55.5%: M229P

CC(=O)O[C@]1(C(C)=O)CC[C@H]2[C@@H]3C=C(Cl)C4=CC(=O)[C@@H]5C[C@@H]5[C@]4(C)[C@H]3CC[C@@]21C [Cyproterone acetate]
7.84%: UACC62P
< 0%: all other assays above

O=C(O)C1(C(=O)O)CCC1.[NH2-].[NH2-].[Pt+2] [Carboplatin]
13.8%: M249P
< 0%: all other assays above

CN1CC(=O)N2[C@H](c3ccc4c(c3)OCO4)c3[nH]c4ccccc4c3C[C@@H]2C1=O [Tadalafil]
5.36%: UACC62P
< 0%: all other assays above

CCN1CCN(CC(=O)Nc2ccc(-c3cccc4c(=O)cc(N5CCOCC5)oc34)c3sc4ccccc4c23)CC1
3.63%: M249R
5.02%: UACC62P
< 0%: all other assays above

CCOC(=O)N1CCC(=C2c3ccc(Cl)cc3CCc3cccnc32)CC1 [Loratadine]
< 0%: all assays above

Nc1nc2c(ncn2COCCO)c(=O)[nH]1 [Aciclovir]
< 0%: all assays above

COc1ccc2c(c1)c(CC(=O)OCC(=O)O)c(C)n2C(=O)c1ccc(Cl)cc1 [Acemetacin]
2.06%: M249R
< 0%: all other assays above

CC(C)Cc1ccc(C(C)C(=O)O)cc1 (stereo not drawn) [Ibuprofen lysine]
1.83%: UACC62P
2.61%: M249R
< 0%: all other assays above
